Reference: PubChem BioAssay AID188 (DTP/NCI, 2004)
The mice bore no tumour; each value counts animals alive of those treated. Survivors were counted at the toxicity check, usually on the fifth day, unless a day is given; later deaths do not show. Schedule codes are those of the source, read here as Q, the interval in days (D) or hours (H), X, the number of doses.

Tested on: CD2F1 mice, nontumored, toxicity/survival
Experiment: NCI In Vivo Anticancer Drug Screen. Data for tumor model Nontumored Animals (Toxicity Test) in CD2F1 (CDF1) mice
[1] = dose: 100.0 mg/kg/injection, schedule: Q01DX001 (ip), vehicle: water
[2] = dose: 118.0 mg/kg/injection, schedule: Q01DX009 (ip), vehicle: Klucel (hydroxypropylcellulose) (HPC)
[3] = dose: 177.0 mg/kg/injection, schedule: Q01DX009 (ip), vehicle: Klucel (hydroxypropylcellulose) (HPC)
[4] = dose: 266.0 mg/kg/injection, schedule: Q01DX009 (ip), vehicle: Klucel (hydroxypropylcellulose) (HPC)
[5] = dose: 400.0 mg/kg/injection, schedule: Q01DX009 (ip), vehicle: Klucel (hydroxypropylcellulose) (HPC)
[6] = dose: 600.0 mg/kg/injection, schedule: Q01DX009 (ip), vehicle: Klucel (hydroxypropylcellulose) (HPC)

With Nc1nc(N)c2cc(CCc3ccc(C(=O)NC(CCC(=O)O)C(=O)O)cc3)ccc2n1 (stereo not drawn) the survivor count (dose: 1.0 mg/kg/injection, schedule: Q01DX001 (ip), vehicle: Klucel (hydroxypropylcellulose) (HPC)) was 2 of 2, the survivor count (dose: 10.0 mg/kg/injection, schedule: Q01DX001 (ip), vehicle: Klucel (hydroxypropylcellulose) (HPC)) was 2 of 2 and the survivor count (dose: 100.0 mg/kg/injection, schedule: Q01DX001 (ip), vehicle: Klucel (hydroxypropylcellulose) (HPC)) was 0 of 2.

With Nc1nc(N)c(NC=O)c(N)n1 the survivor count (dose: 1.0 mg/kg/injection, schedule: Q01DX001 (ip), vehicle: water) was 2 of 2, the survivor count (dose: 10.0 mg/kg/injection, schedule: Q01DX001 (ip), vehicle: water) was 2 of 2 and the survivor count [1] was 2 of 2.

For Nc1ccc(-c2c(N)nc(Br)c3ccccc23)cc1, the survivor count (dose: 1.0 mg/kg/injection, schedule: Q01DX001 (ip), vehicle: saline with Tween-80) was 2 of 2, the survivor count (dose: 10.0 mg/kg/injection, schedule: Q01DX001 (ip), vehicle: saline with Tween-80) was 2 of 2 and the survivor count (dose: 100.0 mg/kg/injection, schedule: Q01DX001 (ip), vehicle: saline with Tween-80) was 2 of 2.

With CCCCCCCCCCCCCCCC(=O)OCC1OC(n2ccc(N)nc2=O)C(O)C1O (stereo not drawn) the survivor count (dose: 125.0 mg/kg/injection, schedule: Q01DX001 (ip), vehicle: saline with Tween-80) was 10 of 10 and the survivor count (dose: 150.0 mg/kg/injection, schedule: Q01DX001 (ip), vehicle: saline with Tween-80) was 10 of 10.

In the case of N=[N+]=CC(=O)CCC(NC(=O)C(CCC(=O)C=[N+]=N)NC(=O)CCC(N)C(=O)O)C(=O)O (stereo not drawn), the survivor count (dose: 0.01 mg/kg/injection, schedule: Q01DX009 (ip), vehicle: water) is reported as 8 of 8, the survivor count (dose: 0.03 mg/kg/injection, schedule: Q01DX009 (ip), vehicle: water) is reported as 8 of 8 and the survivor count (dose: 0.05 mg/kg/injection, schedule: Q01DX009 (ip), vehicle: water) is reported as 8 of 8. For the same compound, the survivor count (dose: 0.05 mg/kg/injection, schedule: Q01DX009 (oral), vehicle: water) was 8 of 8, the survivor count (dose: 0.05 mg/kg/injection, schedule: Q01DX009 (sc), vehicle: water) was 8 of 8 and the survivor count (dose: 0.1 mg/kg/injection, schedule: Q01DX009 (ip), vehicle: water) was 8 of 8. For the same compound, the survivor count (dose: 0.1 mg/kg/injection, schedule: Q01DX009 (oral), vehicle: water) was 8 of 8, the survivor count (dose: 0.1 mg/kg/injection, schedule: Q01DX009 (sc), vehicle: water) was 8 of 8 and the survivor count (dose: 0.2 mg/kg/injection, schedule: Q01DX009 (ip), vehicle: water) was 8 of 8. The survivor count (dose: 0.2 mg/kg/injection, schedule: Q01DX009 (oral), vehicle: water) was 8 of 8, the survivor count (dose: 0.2 mg/kg/injection, schedule: Q01DX009 (sc), vehicle: water) was 8 of 8 and the survivor count (dose: 0.4 mg/kg/injection, schedule: Q01DX009 (oral), vehicle: water) was 8 of 8. For the same compound, the survivor count (dose: 0.4 mg/kg/injection, schedule: Q01DX009 (sc), vehicle: water) was 8 of 8, the survivor count (dose: 0.8 mg/kg/injection, schedule: Q01DX009 (oral), vehicle: water) was 8 of 8 and the survivor count (dose: 0.8 mg/kg/injection, schedule: Q01DX009 (sc), vehicle: water) was 8 of 8. For the same compound, the survivor count (dose: 0.8 mg/kg/injection, schedule: Q03HX024 (ip), vehicle: water) was 8 of 8, the survivor count (dose: 1.6 mg/kg/injection, schedule: Q03HX016 (ip), vehicle: water) was 6 of 8 and the survivor count (dose: 1.6 mg/kg/injection, schedule: Q03HX024 (ip), vehicle: water) was 6 of 8. For the same compound, the survivor count (dose: 3.1 mg/kg/injection, schedule: Q03HX008 (ip), vehicle: water) was 7 of 8, the survivor count (dose: 3.1 mg/kg/injection, schedule: Q03HX016 (ip), vehicle: water) was 6 of 8 and the survivor count (dose: 3.1 mg/kg/injection, schedule: Q03HX024 (ip), vehicle: water) was 7 of 8. The survivor count (dose: 6.2 mg/kg/injection, schedule: Q03HX008 (ip), vehicle: water) was 6 of 8, the survivor count (dose: 6.2 mg/kg/injection, schedule: Q04DX003 (ip), vehicle: water) was 8 of 8 and the survivor count (dose: 6.25 mg/kg/injection, schedule: Q03HX016 (ip), vehicle: water) was 6 of 8. For the same compound, the survivor count (dose: 6.25 mg/kg/injection, schedule: Q03HX024 (ip), vehicle: water) was 7 of 8, the survivor count (dose: 12.5 mg/kg/injection, schedule: Q03HX008 (ip), vehicle: water) was 4 of 8 and the survivor count (dose: 12.5 mg/kg/injection, schedule: Q03HX016 (ip), vehicle: water) was 4 of 8. For the same compound, the survivor count (dose: 12.5 mg/kg/injection, schedule: Q03HX024 (ip), vehicle: water) was 4 of 8, the survivor count (dose: 12.5 mg/kg/injection, schedule: Q04DX003 (ip), vehicle: water) was 8 of 8 and the survivor count (dose: 12.5 mg/kg/injection, schedule: Q08DX002 (ip), vehicle: water) was 8 of 8. For the same compound, the survivor count (dose: 25.0 mg/kg/injection, schedule: Q01DX001 (ip), vehicle: water) was 8 of 8, the survivor count (dose: 25.0 mg/kg/injection, schedule: Q01DX001 (oral), vehicle: water) was 8 of 8 and the survivor count (dose: 25.0 mg/kg/injection, schedule: Q01DX001 (sc), vehicle: water) was 8 of 8. For the same compound, the survivor count (dose: 25.0 mg/kg/injection, schedule: Q03HX008 (ip), vehicle: water) was 4 of 8, the survivor count (dose: 25.0 mg/kg/injection, schedule: Q03HX016 (ip), vehicle: water) was 4 of 8 and the survivor count (dose: 25.0 mg/kg/injection, schedule: Q04DX003 (ip), vehicle: water) was 8 of 8. The survivor count (dose: 25.0 mg/kg/injection, schedule: Q08DX002 (ip), vehicle: water) was 8 of 8, the survivor count (dose: 50.0 mg/kg/injection, schedule: Q01DX001 (ip), vehicle: water) was 8 of 8 and the survivor count (dose: 50.0 mg/kg/injection, schedule: Q01DX001 (oral), vehicle: water) was 8 of 8. For the same compound, the survivor count (dose: 50.0 mg/kg/injection, schedule: Q01DX001 (sc), vehicle: water) was 8 of 8, the survivor count (dose: 50.0 mg/kg/injection, schedule: Q03HX008 (ip), vehicle: water) was 0 of 8 and the survivor count (dose: 50.0 mg/kg/injection, schedule: Q04DX003 (ip), vehicle: water) was 8 of 8. The survivor count (dose: 50.0 mg/kg/injection, schedule: Q08DX002 (ip), vehicle: water) was 8 of 8, the survivor count [1] was 7 of 8 and the survivor count (dose: 100.0 mg/kg/injection, schedule: Q01DX001 (oral), vehicle: water) was 8 of 8. The survivor count (dose: 100.0 mg/kg/injection, schedule: Q01DX001 (sc), vehicle: water) was 7 of 7, the survivor count (dose: 100.0 mg/kg/injection, schedule: Q04DX003 (ip), vehicle: water) was 8 of 8 and the survivor count (dose: 100.0 mg/kg/injection, schedule: Q08DX002 (ip), vehicle: water) was 8 of 8. For the same compound, the survivor count (dose: 200.0 mg/kg/injection, schedule: Q01DX001 (ip), vehicle: water) was 8 of 8, the survivor count (dose: 200.0 mg/kg/injection, schedule: Q01DX001 (oral), vehicle: water) was 8 of 8 and the survivor count (dose: 200.0 mg/kg/injection, schedule: Q01DX001 (sc), vehicle: water) was 7 of 8. The survivor count (dose: 200.0 mg/kg/injection, schedule: Q08DX002 (ip), vehicle: water) was 7 of 8, the survivor count (dose: 400.0 mg/kg/injection, schedule: Q01DX001 (ip), vehicle: water) was 7 of 8 and the survivor count (dose: 400.0 mg/kg/injection, schedule: Q01DX001 (oral), vehicle: water) was 7 of 8. The survivor count (dose: 400.0 mg/kg/injection, schedule: Q01DX001 (sc), vehicle: water) was 7 of 8.

OCC(O)C(O)C(O)C(O)CO (stereo not drawn) was tested, and the survivor count (dose: 0.63 mg/kg/injection, schedule: Q01DX009 (ip), vehicle: saline) was 8 of 8, the survivor count (dose: 1.25 mg/kg/injection, schedule: Q01DX009 (ip), vehicle: saline) was 8 of 8 and the survivor count (dose: 2.5 mg/kg/injection, schedule: Q01DX009 (ip), vehicle: saline) was 8 of 8. The survivor count (dose: 5.0 mg/kg/injection, schedule: Q01DX009 (ip), vehicle: saline) was 8 of 8, the survivor count (dose: 10.0 mg/kg/injection, schedule: Q01DX009 (ip), vehicle: saline) was 8 of 8 and the survivor count (dose: 20.0 mg/kg/injection, schedule: Q01DX009 (ip), vehicle: saline) was 8 of 8. For the same compound, the survivor count (dose: 40.0 mg/kg/injection, schedule: Q01DX009 (ip), vehicle: saline) was 8 of 8.

For CN(C)N=Nc1ccc(C(F)(F)F)cc1, the survivor count [2] was 9 of 10, the survivor count [3] was 10 of 10 and the survivor count [4] was 6 of 10. The survivor count [5] was 1 of 10 and the survivor count [6] was 0 of 10.

CN(C)N=Nc1ccc(C#N)cc1 was tested, and the survivor count [2] was 10 of 10, the survivor count [3] was 9 of 10 and the survivor count [4] was 1 of 10. The survivor count [5] was 0 of 10 and the survivor count [6] was 0 of 10.

With CC(=O)Nc1nc(Br)c2ccccc2c1-c1ccc(N(CCOS(C)(=O)=O)CCOS(C)(=O)=O)cc1 the survivor count (dose: 1.0 mg/kg/injection, schedule: Q01DX001 (ip), vehicle: other) was 2 of 2, the survivor count (dose: 10.0 mg/kg/injection, schedule: Q01DX001 (ip), vehicle: other) was 2 of 2 and the survivor count (dose: 100.0 mg/kg/injection, schedule: Q01DX001 (ip), vehicle: other) was 2 of 2.

CCCCCC[C@H]([C@H](C)O)n1cnc2c(N)ncnc21 was tested, and the survivor count (dose: 25.0 mg/kg/injection, schedule: Q01DX009 (ip), vehicle: Klucel (hydroxypropylcellulose) (HPC)) was 10 of 10, the survivor count (dose: 50.0 mg/kg/injection, schedule: Q01DX009 (ip), vehicle: Klucel (hydroxypropylcellulose) (HPC)) was 10 of 10 and the survivor count (dose: 50.0 mg/kg/injection, schedule: Q04DX002 (ip), vehicle: Klucel (hydroxypropylcellulose) (HPC)) was 10 of 10. For the same compound, the survivor count (dose: 100.0 mg/kg/injection, schedule: Q01DX009 (ip), vehicle: Klucel (hydroxypropylcellulose) (HPC)) was 8 of 9, the survivor count (dose: 100.0 mg/kg/injection, schedule: Q04DX002 (ip), vehicle: Klucel (hydroxypropylcellulose) (HPC)) was 10 of 10 and the survivor count (dose: 200.0 mg/kg/injection, schedule: Q01DX009 (ip), vehicle: Klucel (hydroxypropylcellulose) (HPC)) was 4 of 7. For the same compound, the survivor count (dose: 200.0 mg/kg/injection, schedule: Q04DX002 (ip), vehicle: Klucel (hydroxypropylcellulose) (HPC)) was 10 of 10.
